From patent publication US10563263B2, “Genetic polymorphisms associated with statin response and cardiovascular diseases, methods of detection and uses thereof” (CELERA CORPORATION, priority 2010, dated 2020)
The source gives many values for each of these; only a part stands here.

Tested on: CHD
Test: Meta-analysis of CARE and WOSCOPS combined, synergy index, CHD endpoint
Assay type: in vivo, human
From the text: Tables 4-5 provide meta-analyses of CARE and WOSCOPS combined (2nd section of each table) for two endpoints (CHD and CVD) and three genetic models (dominant, recessive, and additive), as well as logistic regression analyses of CARE (3rd section of each table) and WOSCOPS (4th section of each table) individually.
Tables 12 and 17 provide results of meta-analysis of the CARE and WOSCOPS sample sets combined by direct genotyping and by imputing genotypes.
“P” indicates the p-value, and “P(R)” (or “P.R.”) indicates the p-value random effect. Both of these are p-values corresponding to a statistical test of whether the combined synergy index is equal to one but use different assumptions to derive the p-value. “P” is calculated using a fixed effects model, and “P(R)” is calculated using a random effects model.
“OR” indicates the odds ratio (synergy index) calculated from a fixed effects model, and “OR(R)” (or “OR.R.”) indicates the odds ratio (synergy index) calculated from a random effects model.

[1] = SNP rs1868616, allele (A1) G, ADDITIVE, Imputed
[2] = SNP rs1874313, allele (A1) A, DOMINANT, Imputed
[3] = SNP rs1884902, allele (A1) C, RECESSIVE, Imputed
[4] = SNP rs1913201, allele (A1) G, ADDITIVE, Imputed
[5] = SNP rs1913201, allele (A1) G, DOMINANT, Imputed
[6] = SNP rs1913201, allele (A1) G, GENOTYPIC, Imputed
[7] = SNP rs1944279, allele (A1) A, ADDITIVE, Imputed
[8] = SNP rs1987179, allele (A1) T, DOMINANT, Imputed
[9] = SNP rs1990023, allele (A1) T, DOMINANT, Imputed
[10] = SNP rs2016194, allele (A1) G, DOMINANT, Imputed
[11] = SNP rs2024789, allele (A1) C, ADDITIVE, Imputed
[12] = SNP rs2024789, allele (A1) C, GENOTYPIC, Imputed
[13] = SNP rs2024902, allele (A1) A, ADDITIVE, Imputed
[14] = SNP rs2024902, allele (A1) A, DOMINANT, Imputed
[15] = SNP rs2025107, allele (A1) A, ADDITIVE, Imputed
[16] = SNP rs2025107, allele (A1) A, DOMINANT, Imputed
[17] = SNP rs2025108, allele (A1) T, ADDITIVE, Imputed
[18] = SNP rs2025108, allele (A1) T, DOMINANT, Imputed
[19] = SNP rs2062448, allele (A1) T, ADDITIVE, Imputed
[20] = SNP rs2062448, allele (A1) T, DOMINANT, Imputed
[21] = SNP rs2063591, allele (A1) C, ADDITIVE, Imputed
[22] = SNP rs2063591, allele (A1) C, DOMINANT, Imputed
[23] = SNP rs2065604, allele (A1) C, DOMINANT, Imputed
[24] = SNP rs2066238, allele (A1) T, DOMINANT, Imputed
[25] = SNP rs2068051, allele (A1) G, ADDITIVE, Imputed
[26] = SNP rs2068051, allele (A1) G, GENOTYPIC, Imputed
[27] = SNP rs2077702, allele (A1) G, GENOTYPIC, Genotyped
[28] = SNP rs2095586, allele (A1) A, DOMINANT, Imputed
[29] = SNP rs2108426, allele (A1) C, DOMINANT, Imputed
[30] = SNP rs2110664, allele (A1) A, DOMINANT, Imputed
[31] = SNP rs2132242, allele (A1) A, DOMINANT, Imputed
[32] = SNP rs2151644, allele (A1) T, DOMINANT, Imputed
[33] = SNP rs2157752, allele (A1) A, GENOTYPIC, Genotyped
[34] = SNP rs2158958, allele (A1) A, DOMINANT, Imputed
[35] = SNP rs2158961, allele (A1) G, DOMINANT, Imputed
[36] = SNP rs2164099, allele (A1) G, ADDITIVE, Imputed
[37] = SNP rs2173254, allele (A1) G, GENOTYPIC, Imputed
[38] = SNP rs2173254, allele (A1) G, RECESSIVE, Imputed
[39] = SNP rs2188079, allele (A1) C, ADDITIVE, Imputed
[40] = SNP rs2188079, allele (A1) C, GENOTYPIC, Imputed
[41] = SNP rs2190304, allele (A1) G, RECESSIVE, Imputed
[42] = SNP rs2190597, allele (A1) T, DOMINANT, Imputed
[43] = SNP rs2190598, allele (A1) T, DOMINANT, Imputed
[44] = SNP rs2190600, allele (A1) A, DOMINANT, Imputed
[45] = SNP rs16877387, allele (A1) C, GENOTYPIC, Imputed
[46] = SNP rs16877387, allele (A1) C, RECESSIVE, Imputed
[47] = SNP rs16938626, allele (A1) G, DOMINANT, Imputed
[48] = SNP rs16998821, allele (A1) C, DOMINANT, Imputed
[49] = SNP rs17007620, allele (A1) G, ADDITIVE, Imputed

CC[C@H](C)C(=O)O[C@H]1C[C@H](O)C=C2C=C[C@H](C)[C@H](CC[C@@H](O)C[C@@H](O)CC(=O)O)[C@H]21 [Pravastatin, pravastatin]
OR [1]: 0.6201 | OR(R) [1]: 0.6201 | OR [2]: 0.5922 | OR(R) [2]: 0.5922 | OR [3]: 2.0651 | OR(R) [3]: 2.0651 | OR [4]: 0.7177 | OR(R) [4]: 0.7177 | OR [5]: 0.5843 | OR(R) [5]: 0.5843 | OR [6]: 0.5555 | OR(R) [6]: 0.5555 | OR [7]: 1.5292 | OR(R) [7]: 1.5292 | OR [8]: 0.6885 | OR(R) [8]: 0.6885 | OR [9]: 0.5675 | OR(R) [9]: 0.5675 | OR [10]: 0.5753 | OR(R) [10]: 0.5753 | OR [11]: 0.7001 | OR(R) [11]: 0.7001 | OR [12]: 0.4935 | OR(R) [12]: 0.4935 | OR [13]: 2.1731 | OR(R) [13]: 2.1731 | OR [14]: 2.3955 | OR(R) [14]: 2.3955 | OR [15]: 2.1211 | OR(R) [15]: 2.1211 | OR [16]: 2.4108 | OR(R) [16]: 2.4108 | OR [17]: 2.1211 | OR(R) [17]: 2.1211 | OR [18]: 2.4108 | OR(R) [18]: 2.4108 | OR [19]: 0.4975 | OR(R) [19]: 0.4975 | OR [20]: 0.4776 | OR(R) [20]: 0.4776 | OR [21]: 0.7439 | OR(R) [21]: 0.7439 | OR [22]: 0.5704 | OR(R) [22]: 0.5704 | OR [23]: 0.5093 | OR(R) [23]: 0.5093 | OR [24]: 0.5711 | OR(R) [24]: 0.5711 | OR [25]: 0.6225 | OR(R) [25]: 0.6225 | OR [26]: 0.3895 | OR(R) [26]: 0.3895 | OR [27]: 1.8705 | OR(R) [27]: 1.8705 | OR [28]: 1.6153 | OR(R) [28]: 1.6079 | OR [29]: 0.5744 | OR(R) [29]: 0.5744 | OR [30]: 1.568 | OR(R) [30]: 1.568 | OR [31]: 0.6005 | OR(R) [31]: 0.6005 | OR [32]: 0.5083 | OR(R) [32]: 0.5083 | OR [33]: 0.4178 | OR(R) [33]: 0.4178 | OR [34]: 0.5753 | OR(R) [34]: 0.5753 | OR [35]: 0.5806 | OR(R) [35]: 0.5806 | OR [36]: 1.51 | OR(R) [36]: 1.51 | OR [37]: 0.3535 | OR(R) [37]: 0.3535 | OR [38]: 0.3802 | OR(R) [38]: 0.3802 | OR [39]: 1.4883 | OR(R) [39]: 1.4883 | OR [40]: 2.2697 | OR(R) [40]: 2.2697 | OR [41]: 0.5028 | OR(R) [41]: 0.5057 | OR [42]: 0.6352 | OR(R) [42]: 0.6427 | OR [43]: 0.5753 | OR(R) [43]: 0.5753 | OR [44]: 0.5759 | OR(R) [44]: 0.5759 | OR [45]: 2.2411 | OR(R) [45]: 2.2411 | OR [46]: 2.2227 | OR(R) [46]: 2.2227 | OR [47]: 0.6116 | OR(R) [47]: 0.6116 | OR [48]: 0.5728 | OR(R) [48]: 0.5728 | OR [49]: 1.6003 | OR(R) [49]: 1.6003
